No constants are given. Whether binding was seen depends on the method and setting. For part of these data: In cells and extracts the contact can be indirect. Some results given as binding are weak or reduced against the parent protein; the word gives no strength. For part of these data: Tags and fused reporters may be left off the sequences shown. One block for each molecule: values may come before it.
Assays:
[1] = molecular target: T1, Flag-tagged Slug (wild type) (UniProt O43623); assay: co-IP; transient transfection of tagged plasmids in H1299 cells; lysates immunoprecipitated with anti-Flag antibodies, Western blotting
T1 sequence: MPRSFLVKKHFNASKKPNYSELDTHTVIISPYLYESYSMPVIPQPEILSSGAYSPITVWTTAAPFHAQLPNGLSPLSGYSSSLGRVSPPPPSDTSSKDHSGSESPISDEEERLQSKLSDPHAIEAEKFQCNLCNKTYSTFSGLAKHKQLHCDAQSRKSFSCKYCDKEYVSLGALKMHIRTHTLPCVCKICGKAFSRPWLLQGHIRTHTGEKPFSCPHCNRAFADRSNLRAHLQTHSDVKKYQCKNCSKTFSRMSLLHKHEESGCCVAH

By UniProt entry, the sequences of proteins in these tests, tags left out.
UniProt Q13547: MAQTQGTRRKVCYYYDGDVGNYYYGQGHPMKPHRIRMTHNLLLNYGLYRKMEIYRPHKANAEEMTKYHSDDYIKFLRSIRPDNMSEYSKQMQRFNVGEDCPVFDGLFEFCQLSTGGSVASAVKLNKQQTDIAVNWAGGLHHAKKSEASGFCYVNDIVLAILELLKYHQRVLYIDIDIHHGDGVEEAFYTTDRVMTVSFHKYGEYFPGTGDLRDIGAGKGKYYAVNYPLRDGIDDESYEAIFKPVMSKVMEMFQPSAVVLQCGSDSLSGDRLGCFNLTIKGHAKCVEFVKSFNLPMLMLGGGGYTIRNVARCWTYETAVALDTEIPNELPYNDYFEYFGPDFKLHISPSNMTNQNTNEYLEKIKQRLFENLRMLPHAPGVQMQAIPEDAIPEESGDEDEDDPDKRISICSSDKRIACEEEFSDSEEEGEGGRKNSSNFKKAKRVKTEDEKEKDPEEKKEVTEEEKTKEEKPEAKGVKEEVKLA
UniProt O00560: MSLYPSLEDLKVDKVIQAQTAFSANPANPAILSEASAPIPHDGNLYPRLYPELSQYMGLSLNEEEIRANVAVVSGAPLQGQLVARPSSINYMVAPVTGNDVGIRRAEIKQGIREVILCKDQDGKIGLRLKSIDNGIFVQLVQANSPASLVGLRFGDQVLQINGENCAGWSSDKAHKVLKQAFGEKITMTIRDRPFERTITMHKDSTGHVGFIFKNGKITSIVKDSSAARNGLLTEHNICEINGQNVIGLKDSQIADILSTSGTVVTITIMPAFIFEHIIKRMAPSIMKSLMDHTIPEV

[2] = molecular target: HDAC1-Flag (UniProt Q13547); assay: as above
[3] = molecular target: T2, HA-tagged Slug, in vitro translated (UniProt O43623); assay: native gel or EMSA; 32P-labeled E-box oligonucleotides incubated with in vitro translated HA-Slug and HA-Syntenin (3 or 6 μl), with or without antibodies (0.3 μg)
T2 sequence: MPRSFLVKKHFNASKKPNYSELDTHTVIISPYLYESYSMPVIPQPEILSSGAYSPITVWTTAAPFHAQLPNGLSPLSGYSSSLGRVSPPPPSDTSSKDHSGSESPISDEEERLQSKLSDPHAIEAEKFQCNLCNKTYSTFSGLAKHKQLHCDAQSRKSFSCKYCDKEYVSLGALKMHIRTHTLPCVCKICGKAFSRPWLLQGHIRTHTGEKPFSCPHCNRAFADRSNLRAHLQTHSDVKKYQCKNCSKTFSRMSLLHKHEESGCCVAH

[4] = molecular target: T3, Slug, endogenous in CL1-5 cells (human (endogenous in CL1-5)) (UniProt O43623); assay: co-IP; endogenous proteins in CL1-5 cells; immunoprecipitation and Western blot
T3 sequence: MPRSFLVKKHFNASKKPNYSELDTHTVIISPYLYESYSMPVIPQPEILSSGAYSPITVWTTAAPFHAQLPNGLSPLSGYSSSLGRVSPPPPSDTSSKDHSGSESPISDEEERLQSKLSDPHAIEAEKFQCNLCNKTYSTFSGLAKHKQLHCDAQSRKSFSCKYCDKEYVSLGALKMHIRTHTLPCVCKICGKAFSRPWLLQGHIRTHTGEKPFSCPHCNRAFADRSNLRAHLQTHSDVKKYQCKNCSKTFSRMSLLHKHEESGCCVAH

[5] = molecular target: T4, Slug, two-hybrid bait in the pAS2 vector (UniProt O43623); assay: two-hybrid; pACT2-MDA-9/Syntenin (AD) with constructs in the pAS2 vector (BD); colonies grown on selection medium, β-gal assay
T4 sequence: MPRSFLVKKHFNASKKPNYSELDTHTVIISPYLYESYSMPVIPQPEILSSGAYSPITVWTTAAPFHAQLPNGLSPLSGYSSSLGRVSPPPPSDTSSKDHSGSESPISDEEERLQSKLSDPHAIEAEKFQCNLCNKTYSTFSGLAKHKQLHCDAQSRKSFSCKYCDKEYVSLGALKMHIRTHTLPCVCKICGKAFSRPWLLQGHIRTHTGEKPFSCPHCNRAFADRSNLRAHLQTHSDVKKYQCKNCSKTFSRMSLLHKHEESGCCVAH

[6] = molecular target: Flag-tagged WT-Syntenin (human) (UniProt O00560); assay: co-IP; transient transfection of tagged plasmids in H1299 cells; lysates immunoprecipitated with anti-Flag antibodies, Western blotting

- binding [1]: binds
- binding [2]: binds
Molecule: HA-Syntenin (from UniProt O00560 1-298)

- binding [3]: binds
Molecule: HA-Syntenin, in vitro translated (from UniProt O00560 1-298)

- binding [4]: binds
Molecule: MDA-9/Syntenin, endogenous in CL1-5 cells (from UniProt O00560 1-298)

- binding [5]: binds
Molecule: pACT2-MDA-9/Syntenin (from UniProt O00560 1-298)

- binding [6]: binds
B1: HA-Slug (protein, UniProt O43623 1-268)
chain: MPRSFLVKKHFNASKKPNYSELDTHTVIISPYLYESYSMPVIPQPEILSSGAYSPITVWTTAAPFHAQLPNGLSPLSGYSSSLGRVSPPPPSDTSSKDHSGSESPISDEEERLQSKLSDPHAIEAEKFQCNLCNKTYSTFSGLAKHKQLHCDAQSRKSFSCKYCDKEYVSLGALKMHIRTHTLPCVCKICGKAFSRPWLLQGHIRTHTGEKPFSCPHCNRAFADRSNLRAHLQTHSDVKKYQCKNCSKTFSRMSLLHKHEESGCCVAH
